Data as given in PubChem BioAssay AID1224830 (NIAID, 2016)
Assay: 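Genes whose knock-down alters the TNF-alpha reporter response to LPS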 (primary screen). System: human THP-1 monocytic leukaemia cells, TNF dual-luciferase reporter clone, PMA-differentiated to macrophage-like cells. Reagents: siRNA pool against human genes, 50 nM. Time to read-out: LPS for 4 h, given about 3 days after siRNA transfection. Conditions: bacterial LPS (TLR4 ligand), 10 ng/ml. Read-out: 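TNF firefly reporter luminescence divided by renilla, normalised to the plate median, then turned into a robust z-score for each replicate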. Reading the numbers: TNF reporter robust z-score: higher = stronger TNF reporter response to LPS. Rule for the call: 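Each well counts as active if its z-score is over 2.8 or under -1.5; controls are left without a call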.
Here is a random part of about 18,000 deposited reagents. About 2,900 of them (16%) count as active. 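Calls are made per well; low scores hint the gene aids the LPS response, high scores that it dampens it.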 Unmarked entries are inactive. Repeated entries: four replicate wells of each siRNA pool.

| gene | TNF reporter robust z-score |
| --- | --- |
| NR2F1 (nuclear receptor subfamily 2 group F member 1) | 0.38 |
| NR2F1 (nuclear receptor subfamily 2 group F member 1) | -0.6 |
| NR2F1 (nuclear receptor subfamily 2 group F member 1) | -0.01 |
| NR2F1 (nuclear receptor subfamily 2 group F member 1) | -0.39 |
| CTNNAL1 (catenin alpha like 1) | 4.81 (active) |
| CTNNAL1 (catenin alpha like 1) | 0.27 |
| CTNNAL1 (catenin alpha like 1) | 0.24 |
| CTNNAL1 (catenin alpha like 1) | -0.44 |
| CYSLTR1 (cysteinyl leukotriene receptor 1) | 1.86 |
| CYSLTR1 (cysteinyl leukotriene receptor 1) | 0.27 |
| CYSLTR1 (cysteinyl leukotriene receptor 1) | 0.22 |
| CYSLTR1 (cysteinyl leukotriene receptor 1) | -0.03 |
| LINC00207 (long independently transcribed non-coding RNA 207) | 0.65 |
| LINC00207 (long independently transcribed non-coding RNA 207) | -1.02 |
| LINC00207 (long independently transcribed non-coding RNA 207) | -0.81 |
| LINC00207 (long independently transcribed non-coding RNA 207) | -0.86 |
| LINC00207 (long independently transcribed non-coding RNA 207) | 1.8 |
| LINC00207 (long independently transcribed non-coding RNA 207) | 1.16 |
| LINC00207 (long independently transcribed non-coding RNA 207) | 2.45 |
| LINC00207 (long independently transcribed non-coding RNA 207) | 3.28 (active) |
| UBL4B (ubiquitin like 4B) | -0.92 |
| UBL4B (ubiquitin like 4B) | 0.77 |
| UBL4B (ubiquitin like 4B) | -0.75 |
| UBL4B (ubiquitin like 4B) | -0.72 |

Laid out differently: results already given
gene	TNF reporter robust z-score
CYSLTR1 (cysteinyl leukotriene receptor 1)	-0.03
LINC00207 (long independently transcribed non-coding RNA 207)	0.65
LINC00207 (long independently transcribed non-coding RNA 207)	-1.02
LINC00207 (long independently transcribed non-coding RNA 207)	-0.81
LINC00207 (long independently transcribed non-coding RNA 207)	-0.86
LINC00207 (long independently transcribed non-coding RNA 207)	1.8

Continued:
| gene | TNF reporter robust z-score |
| --- | --- |
| CASC3 (CASC3 exon junction complex subunit) | -0.37 |
| CASC3 (CASC3 exon junction complex subunit) | 1.47 |
| CASC3 (CASC3 exon junction complex subunit) | -1.06 |
| CASC3 (CASC3 exon junction complex subunit) | -0.2 |
| IGFBP6 (insulin like growth factor binding protein 6) | 0.47 |
| IGFBP6 (insulin like growth factor binding protein 6) | 1.69 |
| IGFBP6 (insulin like growth factor binding protein 6) | 0.43 |
| IGFBP6 (insulin like growth factor binding protein 6) | 0.73 |
| SLC26A3 | -0.62 |
| SLC26A3 | -0.38 |
| SLC26A3 | 0.32 |
| SLC26A3 | 1.08 |
| CASP4 (caspase 4) | 1.2 |
| CASP4 (caspase 4) | 3.21 (active) |
| CASP4 (caspase 4) | 1.1 |
| CASP4 (caspase 4) | 2.11 |
| GAL3ST1 (galactose-3-O-sulfotransferase 1) | -1.07 |
| GAL3ST1 (galactose-3-O-sulfotransferase 1) | -0.27 |
| GAL3ST1 (galactose-3-O-sulfotransferase 1) | -0.1 |
| GAL3ST1 (galactose-3-O-sulfotransferase 1) | -1.32 |
| TRIM62 (tripartite motif containing 62) | 1.67 |
| TRIM62 (tripartite motif containing 62) | 0.42 |
| TRIM62 (tripartite motif containing 62) | 0.52 |
| TRIM62 (tripartite motif containing 62) | 0.8 |
